Experimental data: the supplement of paper PMC10849652
Some of the results follow.

Sequences of proteins named here, by UniProt entry; tags and fusion partners are left off. A change or cut given only in a name is not applied to a line headed by its entry.
UniProt Q96AZ6: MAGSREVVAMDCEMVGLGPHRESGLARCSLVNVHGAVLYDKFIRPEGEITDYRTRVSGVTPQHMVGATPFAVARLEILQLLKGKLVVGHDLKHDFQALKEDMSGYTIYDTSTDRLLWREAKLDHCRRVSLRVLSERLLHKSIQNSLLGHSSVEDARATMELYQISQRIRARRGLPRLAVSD
UniProt Q674X7: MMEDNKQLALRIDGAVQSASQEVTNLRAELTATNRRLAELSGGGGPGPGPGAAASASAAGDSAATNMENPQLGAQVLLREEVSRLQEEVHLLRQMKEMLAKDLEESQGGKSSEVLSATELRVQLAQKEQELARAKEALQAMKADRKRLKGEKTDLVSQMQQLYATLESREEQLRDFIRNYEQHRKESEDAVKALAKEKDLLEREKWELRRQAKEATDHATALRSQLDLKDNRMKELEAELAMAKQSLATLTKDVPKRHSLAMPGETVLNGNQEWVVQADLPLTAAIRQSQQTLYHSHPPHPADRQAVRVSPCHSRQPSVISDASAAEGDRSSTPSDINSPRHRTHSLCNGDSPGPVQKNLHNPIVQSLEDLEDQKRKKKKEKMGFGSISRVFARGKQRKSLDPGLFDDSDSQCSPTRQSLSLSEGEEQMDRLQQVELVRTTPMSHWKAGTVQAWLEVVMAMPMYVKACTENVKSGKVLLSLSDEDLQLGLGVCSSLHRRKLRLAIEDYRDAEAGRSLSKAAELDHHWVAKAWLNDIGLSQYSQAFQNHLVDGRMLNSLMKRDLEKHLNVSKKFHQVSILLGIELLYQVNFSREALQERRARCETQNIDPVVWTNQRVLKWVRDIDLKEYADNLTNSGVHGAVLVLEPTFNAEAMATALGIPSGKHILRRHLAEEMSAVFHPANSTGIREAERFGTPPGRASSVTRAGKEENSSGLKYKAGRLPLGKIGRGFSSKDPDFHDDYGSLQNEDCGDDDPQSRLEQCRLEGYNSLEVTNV
UniProt O43731: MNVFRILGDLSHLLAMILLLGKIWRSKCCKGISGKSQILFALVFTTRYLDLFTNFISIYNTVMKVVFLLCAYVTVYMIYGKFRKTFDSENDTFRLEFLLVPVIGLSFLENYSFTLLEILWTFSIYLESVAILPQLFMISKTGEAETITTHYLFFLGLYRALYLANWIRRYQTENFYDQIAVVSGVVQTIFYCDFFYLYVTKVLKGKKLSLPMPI
UniProt P17275: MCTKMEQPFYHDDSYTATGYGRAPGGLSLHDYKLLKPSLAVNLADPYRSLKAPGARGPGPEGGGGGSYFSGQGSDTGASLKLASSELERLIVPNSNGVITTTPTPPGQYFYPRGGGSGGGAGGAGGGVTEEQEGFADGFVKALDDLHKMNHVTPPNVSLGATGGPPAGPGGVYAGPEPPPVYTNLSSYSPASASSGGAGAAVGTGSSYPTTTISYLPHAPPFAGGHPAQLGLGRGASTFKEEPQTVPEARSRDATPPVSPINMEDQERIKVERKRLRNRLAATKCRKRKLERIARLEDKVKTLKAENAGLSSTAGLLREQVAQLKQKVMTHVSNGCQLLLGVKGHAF
UniProt Q12809: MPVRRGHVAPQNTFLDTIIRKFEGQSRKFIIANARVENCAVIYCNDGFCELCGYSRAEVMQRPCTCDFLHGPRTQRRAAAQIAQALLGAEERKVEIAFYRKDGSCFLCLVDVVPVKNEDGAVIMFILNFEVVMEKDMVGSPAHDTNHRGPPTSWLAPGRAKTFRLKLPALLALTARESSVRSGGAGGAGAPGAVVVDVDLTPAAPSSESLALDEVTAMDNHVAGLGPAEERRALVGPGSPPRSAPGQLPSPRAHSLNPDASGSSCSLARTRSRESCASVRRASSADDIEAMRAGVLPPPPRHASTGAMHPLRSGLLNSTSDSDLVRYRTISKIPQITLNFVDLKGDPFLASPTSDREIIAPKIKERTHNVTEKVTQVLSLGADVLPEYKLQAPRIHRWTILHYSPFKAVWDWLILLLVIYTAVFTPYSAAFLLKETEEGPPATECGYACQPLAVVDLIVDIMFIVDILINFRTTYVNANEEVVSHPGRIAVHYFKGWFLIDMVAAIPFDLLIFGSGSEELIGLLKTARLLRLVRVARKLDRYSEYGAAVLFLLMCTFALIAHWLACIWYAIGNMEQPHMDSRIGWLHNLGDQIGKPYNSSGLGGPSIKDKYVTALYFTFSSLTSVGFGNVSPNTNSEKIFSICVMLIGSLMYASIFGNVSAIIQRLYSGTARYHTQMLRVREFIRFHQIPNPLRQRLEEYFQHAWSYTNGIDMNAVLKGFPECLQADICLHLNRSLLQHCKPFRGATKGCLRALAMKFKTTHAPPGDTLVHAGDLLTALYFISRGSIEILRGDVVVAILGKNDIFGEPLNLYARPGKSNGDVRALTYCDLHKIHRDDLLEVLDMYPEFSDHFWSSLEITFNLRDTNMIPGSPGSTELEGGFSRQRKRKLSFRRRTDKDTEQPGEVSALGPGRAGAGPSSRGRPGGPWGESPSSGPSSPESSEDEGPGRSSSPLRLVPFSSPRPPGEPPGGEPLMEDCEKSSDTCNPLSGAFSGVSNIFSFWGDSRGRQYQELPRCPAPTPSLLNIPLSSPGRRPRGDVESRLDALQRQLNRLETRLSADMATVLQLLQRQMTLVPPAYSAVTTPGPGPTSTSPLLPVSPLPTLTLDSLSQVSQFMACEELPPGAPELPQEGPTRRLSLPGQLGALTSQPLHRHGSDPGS
UniProt Q8N9B5, whole entry, looked up: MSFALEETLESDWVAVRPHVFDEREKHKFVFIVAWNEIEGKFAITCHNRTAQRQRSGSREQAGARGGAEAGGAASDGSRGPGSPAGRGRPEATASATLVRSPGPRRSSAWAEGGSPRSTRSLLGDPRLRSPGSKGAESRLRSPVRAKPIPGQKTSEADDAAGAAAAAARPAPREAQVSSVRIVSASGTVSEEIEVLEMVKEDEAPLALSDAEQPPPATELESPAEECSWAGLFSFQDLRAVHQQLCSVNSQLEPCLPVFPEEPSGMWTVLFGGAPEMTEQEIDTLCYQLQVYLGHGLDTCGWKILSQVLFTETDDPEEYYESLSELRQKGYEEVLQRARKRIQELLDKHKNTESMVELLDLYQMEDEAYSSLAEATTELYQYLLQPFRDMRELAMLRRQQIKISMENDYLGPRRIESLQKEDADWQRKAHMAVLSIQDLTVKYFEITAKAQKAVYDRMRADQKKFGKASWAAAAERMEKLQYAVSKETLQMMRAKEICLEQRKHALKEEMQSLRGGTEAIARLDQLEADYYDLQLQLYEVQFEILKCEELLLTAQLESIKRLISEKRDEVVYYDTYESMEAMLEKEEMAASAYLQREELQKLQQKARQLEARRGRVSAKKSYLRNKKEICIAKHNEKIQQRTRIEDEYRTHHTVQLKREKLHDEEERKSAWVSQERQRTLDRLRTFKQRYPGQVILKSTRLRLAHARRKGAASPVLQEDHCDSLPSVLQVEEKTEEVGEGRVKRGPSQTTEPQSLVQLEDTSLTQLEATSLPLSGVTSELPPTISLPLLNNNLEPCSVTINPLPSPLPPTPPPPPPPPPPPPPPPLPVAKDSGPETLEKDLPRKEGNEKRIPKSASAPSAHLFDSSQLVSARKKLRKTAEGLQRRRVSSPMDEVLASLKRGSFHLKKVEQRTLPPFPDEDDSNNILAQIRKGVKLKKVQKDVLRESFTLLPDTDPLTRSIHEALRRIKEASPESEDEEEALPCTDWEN
UniProt Q13352: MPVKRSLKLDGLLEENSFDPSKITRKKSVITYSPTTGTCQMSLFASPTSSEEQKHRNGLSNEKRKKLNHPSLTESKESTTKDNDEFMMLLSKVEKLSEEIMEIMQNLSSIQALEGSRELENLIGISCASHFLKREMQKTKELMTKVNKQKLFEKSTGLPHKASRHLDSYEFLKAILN
UniProt P0C870: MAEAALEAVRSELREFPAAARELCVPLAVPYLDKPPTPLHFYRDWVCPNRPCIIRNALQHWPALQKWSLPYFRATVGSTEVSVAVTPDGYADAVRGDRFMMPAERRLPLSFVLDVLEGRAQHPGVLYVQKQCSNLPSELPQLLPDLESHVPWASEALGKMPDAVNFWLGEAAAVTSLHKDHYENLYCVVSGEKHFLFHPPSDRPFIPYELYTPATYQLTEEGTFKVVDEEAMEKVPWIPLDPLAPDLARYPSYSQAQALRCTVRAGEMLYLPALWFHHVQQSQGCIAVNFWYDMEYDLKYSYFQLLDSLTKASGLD
UniProt Q9Y219: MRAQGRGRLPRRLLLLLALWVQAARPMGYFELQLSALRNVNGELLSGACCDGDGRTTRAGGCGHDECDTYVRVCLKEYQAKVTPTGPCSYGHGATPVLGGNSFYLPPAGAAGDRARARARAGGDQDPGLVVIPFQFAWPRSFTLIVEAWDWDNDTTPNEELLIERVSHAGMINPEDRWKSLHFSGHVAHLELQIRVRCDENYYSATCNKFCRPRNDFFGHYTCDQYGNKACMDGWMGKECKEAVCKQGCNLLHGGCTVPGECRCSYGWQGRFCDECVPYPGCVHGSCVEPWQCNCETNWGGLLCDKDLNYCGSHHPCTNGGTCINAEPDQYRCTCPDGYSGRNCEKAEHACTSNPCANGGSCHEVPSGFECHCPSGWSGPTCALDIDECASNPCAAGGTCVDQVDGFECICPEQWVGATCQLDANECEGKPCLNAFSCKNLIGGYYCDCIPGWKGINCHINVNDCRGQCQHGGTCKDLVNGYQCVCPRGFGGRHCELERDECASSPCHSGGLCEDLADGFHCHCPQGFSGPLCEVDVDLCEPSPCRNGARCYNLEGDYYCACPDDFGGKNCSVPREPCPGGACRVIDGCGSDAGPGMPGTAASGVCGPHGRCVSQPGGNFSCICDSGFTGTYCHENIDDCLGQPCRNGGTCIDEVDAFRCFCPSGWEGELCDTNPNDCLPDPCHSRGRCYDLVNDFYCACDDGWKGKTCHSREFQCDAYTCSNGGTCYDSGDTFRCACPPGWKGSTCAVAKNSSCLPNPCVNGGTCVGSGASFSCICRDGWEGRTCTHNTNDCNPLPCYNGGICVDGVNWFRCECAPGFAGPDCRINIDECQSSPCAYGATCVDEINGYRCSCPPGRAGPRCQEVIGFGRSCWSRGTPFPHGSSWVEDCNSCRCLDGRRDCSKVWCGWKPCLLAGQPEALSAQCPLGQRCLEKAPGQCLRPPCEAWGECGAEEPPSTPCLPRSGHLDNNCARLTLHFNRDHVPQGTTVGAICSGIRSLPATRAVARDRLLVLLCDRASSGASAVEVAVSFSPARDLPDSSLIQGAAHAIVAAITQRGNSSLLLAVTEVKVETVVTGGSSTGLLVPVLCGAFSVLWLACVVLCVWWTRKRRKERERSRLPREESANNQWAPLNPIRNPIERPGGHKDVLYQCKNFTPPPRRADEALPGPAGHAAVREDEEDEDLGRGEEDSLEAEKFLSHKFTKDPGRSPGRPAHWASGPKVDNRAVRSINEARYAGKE
UniProt O60674: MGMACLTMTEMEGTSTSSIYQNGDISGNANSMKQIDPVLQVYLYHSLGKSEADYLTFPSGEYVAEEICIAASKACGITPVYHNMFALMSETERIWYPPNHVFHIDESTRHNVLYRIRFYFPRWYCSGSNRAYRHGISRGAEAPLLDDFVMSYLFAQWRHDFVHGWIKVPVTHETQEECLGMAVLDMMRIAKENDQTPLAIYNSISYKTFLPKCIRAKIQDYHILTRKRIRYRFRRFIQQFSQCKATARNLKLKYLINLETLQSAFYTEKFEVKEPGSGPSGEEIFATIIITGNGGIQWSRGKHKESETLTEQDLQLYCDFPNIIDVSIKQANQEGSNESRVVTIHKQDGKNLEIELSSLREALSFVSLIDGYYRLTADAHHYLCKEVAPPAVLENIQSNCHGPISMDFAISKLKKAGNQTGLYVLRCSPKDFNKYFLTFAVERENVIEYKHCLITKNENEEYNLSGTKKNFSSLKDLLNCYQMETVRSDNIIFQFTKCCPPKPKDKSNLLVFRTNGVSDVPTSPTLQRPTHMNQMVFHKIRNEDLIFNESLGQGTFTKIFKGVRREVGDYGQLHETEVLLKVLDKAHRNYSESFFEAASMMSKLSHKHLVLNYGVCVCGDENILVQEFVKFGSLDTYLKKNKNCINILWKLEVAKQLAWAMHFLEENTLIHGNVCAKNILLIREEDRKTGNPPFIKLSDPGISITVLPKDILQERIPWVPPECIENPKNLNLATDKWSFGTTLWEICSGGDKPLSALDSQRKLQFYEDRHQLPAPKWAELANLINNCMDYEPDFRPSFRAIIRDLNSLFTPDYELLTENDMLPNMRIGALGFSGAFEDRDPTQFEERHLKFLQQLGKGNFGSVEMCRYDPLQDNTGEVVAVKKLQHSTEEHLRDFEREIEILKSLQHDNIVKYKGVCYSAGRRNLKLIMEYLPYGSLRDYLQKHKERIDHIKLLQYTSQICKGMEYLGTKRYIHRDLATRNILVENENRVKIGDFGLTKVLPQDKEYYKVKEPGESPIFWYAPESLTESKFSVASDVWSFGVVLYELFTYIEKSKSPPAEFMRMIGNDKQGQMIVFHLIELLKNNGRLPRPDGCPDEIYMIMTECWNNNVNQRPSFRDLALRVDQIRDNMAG

Assays:
Experiment in all cases: log2 fold change, soluble protein after heating vs DMSO (PISA); higher = thermal stabilisation; K562 lysate, 10 uM; active = over 0.2 and 3.5 SD of the protein, either way, in both replicates (recomputed)
[1] = compound: Cc1sc2c(c1C)C(c1ccc(Cl)cc1)=N[C@@H](CC(=O)OC(C)(C)C)c1nnc(C)n1-2
Summary of the method: (§1)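 Pellets of K562 cells were dounce-homogenised in PBS pH 7.4 with 1 mM MgCl2, and the crude extract was held at 1 mg/mL protein for a 30 min treatment with 10 μM compound. Aliquots were heated for 3 min over 48°C-58°C and pooled before NP-40 was added to 0.5% at 4°C. The supernatant from 21,000xg for 90 min was quantified by TMTpro 16plex LC-MS/MS with channel sums equalised. Values are reported from duplicates as log-two fold change in thermal stability relative to solvent controls.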

[2] = compound: C1=CC=C(C=C1)[C@H](COC2=CC3=C(C=C2)NC(=O)N3)NC(=O)C4=CC=CN(C4=O)CC5=CC(=C(C=C5)F)F
Summary of the method: as §1

[3] = compound: CC1=C(SC2=C1C(=N[C@H](C3=NN=C(N32)C)CC(=O)N)C4=CC=C(C=C4)Cl)C
Summary of the method: as §1

[4] = compound: c1ccc([C@@H]2C[C@H]2NC2CCNCC2)cc1
Summary of the method: as §1

[5] = compound: CC1=C2C(=CC=C1)N=C(N(C2=O)C3=CC=CC=C3C)CN4C=NC5=C(N=CN=C54)N
Summary of the method: as §1

IRF9 (UniProt Q00978) was tested, and the log2 fold change [1] was inactive: 0.069.

With IRS2 (UniProt Q9Y4H2) the log2 fold change [2] was inactive: -0.091, the log2 fold change [3] was inactive: 0.246 and the log2 fold change [1] was inactive: -0.129. For the same target, the log2 fold change [4] was inactive: -0.354.

ISG20 (UniProt Q96AZ6) was tested, and the log2 fold change [2] was inactive: -0.118, the log2 fold change [3] was inactive: 0.076 and the log2 fold change [1] was inactive: -0.017.

For ITPR2 (UniProt Q14571), the log2 fold change [1] was inactive: -0.171.

With KAZN isoform 3 (UniProt Q674X7) the log2 fold change [2] was inactive: 0.043, the log2 fold change [3] was inactive: -0.035 and the log2 fold change [4] was inactive: 0.132.

For ITFG2 (UniProt H0YGR0), the log2 fold change [5] was inactive: -0.136 and the log2 fold change [1] was inactive: 0.07.

With KDELR3 (UniProt O43731) the log2 fold change [5] was inactive: -0.12, the log2 fold change [1] was inactive: 0.087 and the log2 fold change [4] was inactive: -0.01.

With JUN (UniProt P05412) the log2 fold change [1] was inactive: -0.025.

With JUNB (UniProt P17275) the log2 fold change [1] was inactive: 0.219 and the log2 fold change [4] was inactive: 0.004.

For INTS6L (UniProt Q5JSJ4), the log2 fold change [1] was inactive: 0.073 and the log2 fold change [4] was inactive: 0.086.

In the case of ITM2C (UniProt Q9NQX7), the log2 fold change [2] is reported as inactive: -0.326, the log2 fold change [3] is reported as inactive: 0.019 and the log2 fold change [1] is reported as inactive: -0.044.

With ITPRIP (UniProt Q8IWB1) the log2 fold change [1] was inactive: 0.054.

KALRN (UniProt O60229) was tested, and the log2 fold change [4] was inactive: 0.015.

With NA (UniProt J3KR12) the log2 fold change [5] was inactive: 0.131 and the log2 fold change [4] was inactive: -0.482.

For ITGA2B (UniProt P08514), the log2 fold change [5] was inactive: -0.05 and the log2 fold change [4] was inactive: -0.125.

KCNH2 (UniProt Q12809) was tested, and the log2 fold change [4] was inactive: 0.164.

JPT2 isoform 2 (UniProt Q9H910) was tested, and the log2 fold change [2] was inactive: -0.045, the log2 fold change [3] was inactive: 0.052 and the log2 fold change [1] was inactive: -0.055. The log2 fold change [4] was inactive: -0.01.

JMY (UniProt Q8N9B5) was tested, and the log2 fold change [2] was inactive: -0.142, the log2 fold change [3] was inactive: -0.078 and the log2 fold change [1] was inactive: -0.02. For the same target, the log2 fold change [4] was inactive: 0.13.

In the case of ITGB3BP isoform 5 (UniProt Q13352), the log2 fold change [4] is reported as inactive: -0.014.

With KANSL1 (UniProt Q7Z3B3) the log2 fold change [1] was inactive: 0.159 and the log2 fold change [4] was inactive: 0.

For KATNBL1 (UniProt Q9H079), the log2 fold change [5] was inactive: -0.111, the log2 fold change [1] was inactive: -0.012 and the log2 fold change [4] was inactive: -0.071.

In the case of KBTBD6 (UniProt Q86V97), the log2 fold change [4] is reported as inactive: -0.056.

In the case of JMJD7 (UniProt P0C870), the log2 fold change [2] is reported as inactive: -0.15, the log2 fold change [3] is reported as inactive: -0.003 and the log2 fold change [1] is reported as inactive: 0.227. The log2 fold change [4] was inactive: -0.039.

In the case of JADE2 (UniProt Q9NQC1), the log2 fold change [1] is reported as inactive: -0.149 and the log2 fold change [4] is reported as inactive: -0.104.

For IPO5 (UniProt H0Y3V4), the log2 fold change [5] was inactive: -0.185, the log2 fold change [1] was inactive: -0.023 and the log2 fold change [4] was inactive: 0.093.

For IST1 isoform 2 (UniProt P53990), the log2 fold change [5] was inactive: -0.137 and the log2 fold change [1] was inactive: -0.119.

JAG2 (UniProt Q9Y219) was tested, and the log2 fold change [2] was inactive: 0.213, the log2 fold change [3] was inactive: -0.226 and the log2 fold change [1] was inactive: 0.106. The log2 fold change [4] was inactive: 0.038.

For ISL2 (UniProt Q96A47), the log2 fold change [2] was inactive: 0.038, the log2 fold change [3] was inactive: 0.058 and the log2 fold change [1] was inactive: -0.063. For the same target, the log2 fold change [4] was inactive: 0.207.

With JAK2 (UniProt O60674) the log2 fold change [5] was inactive: 0.004, the log2 fold change [1] was inactive: -0.005 and the log2 fold change [4] was inactive: 0.011.

With IPP (UniProt Q9Y573) the log2 fold change [5] was inactive: -0.009, the log2 fold change [1] was inactive: -0.099 and the log2 fold change [4] was inactive: 0.02.

ISG20L2 (UniProt Q9H9L3) was tested, and the log2 fold change [5] was inactive: 0.145, the log2 fold change [1] was inactive: -0.005 and the log2 fold change [4] was inactive: 0.047.
